Experimental data as given in the supplement of paper PMC10849652.
Some of the results follow.

Sequences of proteins named here, by UniProt entry; tags and fusion partners are left off. A change or cut given only in a name is not applied to a line headed by its entry.
UniProt P07741: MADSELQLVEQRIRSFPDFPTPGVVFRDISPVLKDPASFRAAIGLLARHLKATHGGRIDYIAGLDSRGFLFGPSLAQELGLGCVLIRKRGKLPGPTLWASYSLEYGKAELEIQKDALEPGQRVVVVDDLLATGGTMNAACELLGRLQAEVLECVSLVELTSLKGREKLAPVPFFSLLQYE
UniProt Q9NZN5: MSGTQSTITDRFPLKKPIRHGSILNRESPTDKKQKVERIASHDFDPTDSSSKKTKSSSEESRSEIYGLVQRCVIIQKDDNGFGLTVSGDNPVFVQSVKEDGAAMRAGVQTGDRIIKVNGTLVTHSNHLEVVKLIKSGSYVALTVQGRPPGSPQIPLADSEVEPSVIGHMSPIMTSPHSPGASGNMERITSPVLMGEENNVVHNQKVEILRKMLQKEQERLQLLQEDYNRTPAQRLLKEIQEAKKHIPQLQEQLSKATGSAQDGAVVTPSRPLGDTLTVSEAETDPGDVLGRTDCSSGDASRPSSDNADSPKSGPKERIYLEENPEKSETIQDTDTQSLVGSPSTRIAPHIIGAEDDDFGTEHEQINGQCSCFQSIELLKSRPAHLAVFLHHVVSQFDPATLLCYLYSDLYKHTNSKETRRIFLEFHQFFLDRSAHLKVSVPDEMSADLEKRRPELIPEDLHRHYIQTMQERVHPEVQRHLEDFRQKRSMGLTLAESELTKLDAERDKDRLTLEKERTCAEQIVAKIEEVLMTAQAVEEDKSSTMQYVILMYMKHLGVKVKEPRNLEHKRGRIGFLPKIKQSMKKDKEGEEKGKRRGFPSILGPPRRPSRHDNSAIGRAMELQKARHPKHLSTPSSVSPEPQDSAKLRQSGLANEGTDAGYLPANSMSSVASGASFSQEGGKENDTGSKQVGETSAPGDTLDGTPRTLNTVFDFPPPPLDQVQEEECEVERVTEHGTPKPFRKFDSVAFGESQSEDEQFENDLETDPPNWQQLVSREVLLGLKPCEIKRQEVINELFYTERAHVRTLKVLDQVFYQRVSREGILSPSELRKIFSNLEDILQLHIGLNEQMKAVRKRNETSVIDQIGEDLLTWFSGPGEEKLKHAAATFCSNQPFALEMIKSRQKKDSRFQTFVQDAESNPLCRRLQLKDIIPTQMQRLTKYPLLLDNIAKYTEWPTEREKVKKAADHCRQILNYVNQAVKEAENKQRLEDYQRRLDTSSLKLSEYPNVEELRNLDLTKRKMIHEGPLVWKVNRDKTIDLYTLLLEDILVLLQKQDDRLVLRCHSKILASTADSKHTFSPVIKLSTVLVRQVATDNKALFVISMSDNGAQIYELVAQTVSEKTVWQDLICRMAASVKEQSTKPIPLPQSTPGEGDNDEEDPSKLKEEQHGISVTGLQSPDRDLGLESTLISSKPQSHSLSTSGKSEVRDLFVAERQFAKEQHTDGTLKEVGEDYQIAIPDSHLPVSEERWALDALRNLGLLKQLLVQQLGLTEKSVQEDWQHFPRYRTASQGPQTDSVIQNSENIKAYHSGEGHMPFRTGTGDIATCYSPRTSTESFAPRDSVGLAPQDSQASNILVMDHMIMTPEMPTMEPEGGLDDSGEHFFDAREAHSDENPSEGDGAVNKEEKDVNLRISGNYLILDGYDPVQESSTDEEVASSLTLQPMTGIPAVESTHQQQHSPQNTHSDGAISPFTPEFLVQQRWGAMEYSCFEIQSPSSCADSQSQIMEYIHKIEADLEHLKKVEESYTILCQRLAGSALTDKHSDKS
UniProt Q68EM7: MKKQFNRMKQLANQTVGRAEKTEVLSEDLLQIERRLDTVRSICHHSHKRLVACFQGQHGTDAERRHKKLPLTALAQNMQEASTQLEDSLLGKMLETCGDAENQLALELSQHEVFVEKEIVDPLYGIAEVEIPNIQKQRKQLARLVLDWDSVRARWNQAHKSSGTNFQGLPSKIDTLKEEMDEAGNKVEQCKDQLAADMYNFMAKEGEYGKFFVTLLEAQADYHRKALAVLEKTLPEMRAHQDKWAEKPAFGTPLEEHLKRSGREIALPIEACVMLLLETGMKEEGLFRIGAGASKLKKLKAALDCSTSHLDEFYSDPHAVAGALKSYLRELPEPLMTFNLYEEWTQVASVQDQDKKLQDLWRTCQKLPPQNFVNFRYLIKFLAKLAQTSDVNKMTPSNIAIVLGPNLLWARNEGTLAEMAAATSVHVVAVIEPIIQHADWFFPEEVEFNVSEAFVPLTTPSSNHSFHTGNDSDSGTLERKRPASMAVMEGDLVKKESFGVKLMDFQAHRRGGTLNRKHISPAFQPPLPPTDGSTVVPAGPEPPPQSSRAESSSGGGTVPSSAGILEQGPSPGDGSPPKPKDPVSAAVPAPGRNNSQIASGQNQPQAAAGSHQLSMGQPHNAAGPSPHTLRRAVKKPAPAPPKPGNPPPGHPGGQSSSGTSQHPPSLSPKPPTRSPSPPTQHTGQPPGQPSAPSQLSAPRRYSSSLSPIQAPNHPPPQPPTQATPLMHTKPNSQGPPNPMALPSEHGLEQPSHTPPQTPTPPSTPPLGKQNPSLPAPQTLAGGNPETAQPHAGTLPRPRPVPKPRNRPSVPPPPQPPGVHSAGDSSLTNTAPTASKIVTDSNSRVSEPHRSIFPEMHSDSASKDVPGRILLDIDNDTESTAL
UniProt P49407: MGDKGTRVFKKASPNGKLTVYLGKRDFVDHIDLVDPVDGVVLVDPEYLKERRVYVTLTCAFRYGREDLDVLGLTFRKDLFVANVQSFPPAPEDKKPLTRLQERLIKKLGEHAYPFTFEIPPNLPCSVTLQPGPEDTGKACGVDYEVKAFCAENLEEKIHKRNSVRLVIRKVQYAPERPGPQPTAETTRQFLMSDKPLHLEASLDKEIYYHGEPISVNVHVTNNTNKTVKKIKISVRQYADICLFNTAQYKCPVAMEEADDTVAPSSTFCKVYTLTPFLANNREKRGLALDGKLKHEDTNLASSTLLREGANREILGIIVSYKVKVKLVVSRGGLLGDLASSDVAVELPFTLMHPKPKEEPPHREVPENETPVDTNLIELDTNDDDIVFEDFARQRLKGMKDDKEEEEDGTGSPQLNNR
UniProt P62330: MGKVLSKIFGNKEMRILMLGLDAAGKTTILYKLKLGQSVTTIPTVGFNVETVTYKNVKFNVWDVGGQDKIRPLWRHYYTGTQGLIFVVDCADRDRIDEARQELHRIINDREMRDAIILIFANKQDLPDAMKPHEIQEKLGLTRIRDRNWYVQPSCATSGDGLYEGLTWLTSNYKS
UniProt Q8IW19: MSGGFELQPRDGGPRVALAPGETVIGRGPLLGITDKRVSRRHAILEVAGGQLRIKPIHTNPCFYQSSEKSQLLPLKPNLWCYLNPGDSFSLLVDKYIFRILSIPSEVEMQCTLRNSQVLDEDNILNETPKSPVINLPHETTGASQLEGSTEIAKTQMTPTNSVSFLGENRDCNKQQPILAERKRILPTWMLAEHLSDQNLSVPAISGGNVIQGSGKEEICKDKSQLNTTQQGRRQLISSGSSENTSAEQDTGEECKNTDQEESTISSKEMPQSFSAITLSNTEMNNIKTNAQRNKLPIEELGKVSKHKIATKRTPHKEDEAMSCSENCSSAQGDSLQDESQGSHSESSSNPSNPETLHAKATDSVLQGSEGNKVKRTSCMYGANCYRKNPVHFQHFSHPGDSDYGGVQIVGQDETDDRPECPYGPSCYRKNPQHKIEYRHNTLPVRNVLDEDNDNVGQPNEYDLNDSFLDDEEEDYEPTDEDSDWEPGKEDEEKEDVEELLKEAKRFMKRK
UniProt Q6ZUM4: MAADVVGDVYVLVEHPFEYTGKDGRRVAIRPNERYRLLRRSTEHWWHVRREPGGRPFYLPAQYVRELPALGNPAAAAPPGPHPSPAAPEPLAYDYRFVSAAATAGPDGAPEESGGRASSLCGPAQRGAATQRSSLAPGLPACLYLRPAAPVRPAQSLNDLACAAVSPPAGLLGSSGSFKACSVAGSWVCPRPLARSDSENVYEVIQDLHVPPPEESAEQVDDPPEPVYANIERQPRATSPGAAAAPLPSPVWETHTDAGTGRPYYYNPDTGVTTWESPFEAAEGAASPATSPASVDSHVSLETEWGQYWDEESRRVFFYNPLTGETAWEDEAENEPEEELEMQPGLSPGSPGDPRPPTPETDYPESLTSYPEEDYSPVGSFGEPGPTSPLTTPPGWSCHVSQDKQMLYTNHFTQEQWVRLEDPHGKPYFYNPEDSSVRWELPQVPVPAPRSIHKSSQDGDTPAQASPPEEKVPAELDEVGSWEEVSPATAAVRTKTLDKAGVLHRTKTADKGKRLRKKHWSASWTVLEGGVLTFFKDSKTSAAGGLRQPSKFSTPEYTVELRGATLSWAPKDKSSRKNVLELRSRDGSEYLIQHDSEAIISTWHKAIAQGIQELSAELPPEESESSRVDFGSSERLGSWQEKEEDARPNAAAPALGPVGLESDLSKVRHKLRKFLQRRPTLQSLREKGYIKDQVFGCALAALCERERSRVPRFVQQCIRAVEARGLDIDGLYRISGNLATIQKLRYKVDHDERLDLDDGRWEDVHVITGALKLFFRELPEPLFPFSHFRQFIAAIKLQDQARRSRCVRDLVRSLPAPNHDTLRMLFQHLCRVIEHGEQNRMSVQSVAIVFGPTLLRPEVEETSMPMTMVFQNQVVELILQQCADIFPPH
UniProt Q3SXY8: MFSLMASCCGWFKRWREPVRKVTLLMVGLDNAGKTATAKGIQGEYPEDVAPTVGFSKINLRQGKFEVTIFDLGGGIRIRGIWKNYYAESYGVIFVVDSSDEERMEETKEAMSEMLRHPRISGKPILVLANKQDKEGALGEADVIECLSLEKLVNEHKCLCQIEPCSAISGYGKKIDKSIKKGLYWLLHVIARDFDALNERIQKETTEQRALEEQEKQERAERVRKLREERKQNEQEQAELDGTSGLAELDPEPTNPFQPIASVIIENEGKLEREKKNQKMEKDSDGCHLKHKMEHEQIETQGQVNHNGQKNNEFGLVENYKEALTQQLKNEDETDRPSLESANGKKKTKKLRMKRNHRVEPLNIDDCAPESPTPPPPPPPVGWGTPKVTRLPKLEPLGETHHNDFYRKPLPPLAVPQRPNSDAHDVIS
UniProt Q9H2C2: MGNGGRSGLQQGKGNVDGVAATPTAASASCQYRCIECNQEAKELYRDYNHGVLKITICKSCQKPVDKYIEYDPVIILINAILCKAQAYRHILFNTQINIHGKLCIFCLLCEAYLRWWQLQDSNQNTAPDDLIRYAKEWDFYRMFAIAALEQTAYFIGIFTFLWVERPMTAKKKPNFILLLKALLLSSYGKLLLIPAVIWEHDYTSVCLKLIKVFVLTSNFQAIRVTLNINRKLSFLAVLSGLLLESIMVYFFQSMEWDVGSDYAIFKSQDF
UniProt Q8N264: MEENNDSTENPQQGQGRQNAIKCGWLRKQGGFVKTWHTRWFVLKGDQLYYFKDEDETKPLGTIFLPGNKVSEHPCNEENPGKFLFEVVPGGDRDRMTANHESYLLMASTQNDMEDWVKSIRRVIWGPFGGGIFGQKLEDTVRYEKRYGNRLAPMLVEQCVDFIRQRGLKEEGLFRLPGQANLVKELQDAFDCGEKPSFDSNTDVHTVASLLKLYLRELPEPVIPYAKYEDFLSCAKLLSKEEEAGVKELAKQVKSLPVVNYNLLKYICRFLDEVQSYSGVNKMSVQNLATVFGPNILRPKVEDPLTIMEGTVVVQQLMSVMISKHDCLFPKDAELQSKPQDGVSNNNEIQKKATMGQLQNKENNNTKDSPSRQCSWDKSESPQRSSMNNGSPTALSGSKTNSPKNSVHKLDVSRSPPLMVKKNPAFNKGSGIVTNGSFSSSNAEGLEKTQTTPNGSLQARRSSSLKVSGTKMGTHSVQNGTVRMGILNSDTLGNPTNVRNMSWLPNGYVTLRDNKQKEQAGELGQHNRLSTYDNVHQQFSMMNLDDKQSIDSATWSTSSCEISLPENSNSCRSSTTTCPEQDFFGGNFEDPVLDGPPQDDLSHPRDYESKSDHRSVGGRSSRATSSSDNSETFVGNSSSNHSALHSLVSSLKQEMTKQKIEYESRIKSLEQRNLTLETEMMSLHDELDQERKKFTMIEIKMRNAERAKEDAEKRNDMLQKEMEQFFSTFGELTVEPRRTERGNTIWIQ
UniProt Q9UH17: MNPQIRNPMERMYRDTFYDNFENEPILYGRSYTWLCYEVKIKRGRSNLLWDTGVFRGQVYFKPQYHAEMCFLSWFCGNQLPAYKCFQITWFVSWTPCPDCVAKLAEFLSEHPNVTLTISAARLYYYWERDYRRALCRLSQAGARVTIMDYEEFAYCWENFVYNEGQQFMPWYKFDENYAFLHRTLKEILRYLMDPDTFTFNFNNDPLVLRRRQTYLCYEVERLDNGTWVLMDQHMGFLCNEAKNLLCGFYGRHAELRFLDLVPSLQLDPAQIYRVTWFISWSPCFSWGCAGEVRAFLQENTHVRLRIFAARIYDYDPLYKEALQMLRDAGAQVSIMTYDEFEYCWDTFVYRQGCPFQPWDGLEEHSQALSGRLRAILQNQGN

Legend:
Test in all cases: log2 fold change, soluble protein after heating vs DMSO (PISA); higher = thermal stabilisation; K562 lysate, 10 uM; active = over 0.2 and 3.5 SD of the protein, either way, in both replicates (recomputed)
vemurafenib = compound: CCCS(=O)(=O)Nc1ccc(F)c(C(=O)c2c[nH]c3ncc(-c4ccc(Cl)cc4)cc23)c1F [vemurafenib]
How it was run: (§1)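 The values are log-two fold changes in thermal stability compared with solvent controls and come from duplicates. They were obtained by TMTpro 16plex LC-MS/MS, with channel sums equalised, on the supernatant after 21,000xg for 90 min. That supernatant came from crude K562 extract at 1 mg/mL protein treated with 10 μM compound for 30 min, heated for 3 min across 48°C-58°C, pooled and brought to 0.5% NP-40 at 4°C.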

[1] = compound: CCCS(=O)(=O)Nc1ccc(F)c(C(=O)c2c[nH]c3ncc(Cl)cc23)c1F
How it was run: as §1

barasertib = compound: CCN(CCCOc1ccc2c(Nc3cc(CC(=O)Nc4cccc(F)c4)[nH]n3)ncnc2c1)CCOP(=O)(O)O [barasertib]
How it was run: as §1

[2] = compound: CC[C@@H]1C(=O)N(C)c2cnc(Nc3ccc(C(=O)NC4CCN(C)CC4)cc3OC)nc2N1C1CCCC1
How it was run: as §1

volasertib = compound: CC[C@@H]1C(=O)N(C)c2cnc(Nc3ccc(C(=O)N[C@H]4CC[C@H](N5CCN(CC6CC6)CC5)CC4)cc3OC)nc2N1C(C)C [volasertib]
How it was run: as §1

[3] = compound: CCn1c(C(=O)N(C2CC2)C2CC2)cc2c3c(ncn3C)c(Nc3cc(C)n(C)n3)nc21
How it was run: as §1

[4] = compound: CCn1cc(-c2ccnc3[nH]c(-c4cccc(CN(C)C)c4)cc23)c(-c2ccc(NC(=O)N(C)C)cc2)n1
How it was run: as §1

[5] = compound: CN1CCC(CNc2ccc3ncc(-c4cccc(OC(F)(F)F)c4)n3n2)CC1
How it was run: as §1

saracatinib = compound: CN1CCN(CCOc2cc(OC3CCOCC3)c3c(Nc4c(Cl)ccc5c4OCO5)ncnc3c2)CC1 [saracatinib]
How it was run: as §1

sotrastaurin = compound: CN1CCN(c2nc(C3=C(c4c[nH]c5ccccc45)C(=O)NC3=O)c3ccccc3n2)CC1 [sotrastaurin]
How it was run: as §1

alvocidib = compound: CN1CC[C@H](c2c(O)cc(O)c3c(=O)cc(-c4ccccc4Cl)oc23)[C@H](O)C1 [alvocidib]
How it was run: as §1

Tubastatin A = compound: CN1CCc2c(c3ccccc3n2Cc2ccc(C(=O)NO)cc2)C1 [Tubastatin A]
How it was run: as §1

[6] = compound: CNC(=O)C1=CC=CC=C1NC2=NC(=NC=C2Cl)NC3=C(C=C(C=C3)N4CCOCC4)OC
How it was run: as §1

defactinib = compound: CNC(=O)c1ccc(Nc2ncc(C(F)(F)F)c(NCc3nccnc3N(C)S(C)(=O)=O)n2)cc1 [defactinib]
How it was run: as §1

[7] = compound: CNc1nc(-c2ccc3c(N)n[nH]c3c2)cc(N2C[C@@H](C(=O)NC3CCCCC3)CC[C@H]2C)n1
How it was run: as §1

encorafenib = compound: COC(=O)N[C@@H](C)CNc1nccc(-c2cn(C(C)C)nc2-c2cc(Cl)cc(NS(C)(=O)=O)c2F)n1 [encorafenib]
How it was run: as §1

[8] = compound: COC(=O)[C@H](CCSC)NC(=O)C1=C(C=C(C=C1)NC[C@H](CS)N)C2=CC=CC=C2
How it was run: as §1

alisertib = compound: COc1cc(Nc2ncc3c(n2)-c2ccc(Cl)cc2C(c2c(F)cccc2OC)=NC3)ccc1C(=O)O [alisertib]
How it was run: as §1

[9] = compound: COc1cc2nc(-c3cc(F)ccc3O)nc(N[C@@H]3CNC[C@H]3C(C)(C)O)c2cc1OC
How it was run: as §1

gefitinib = compound: COc1cc2ncnc(Nc3ccc(F)c(Cl)c3)c2cc1OCCCN1CCOCC1 [gefitinib]
How it was run: as §1

Measured: log2 fold change

ARIH1 (UniProt Q9Y4X5)
inactive: vemurafenib -0.015 | [1] 0.003 | barasertib -0.009 | [2] -0.017 | volasertib 0.014 | [3] -0.039 | [4] 0.082 | [5] 0.005 | saracatinib -0.011 | sotrastaurin -0.013 | alvocidib 0.012 | Tubastatin A 0.058 | [6] 0.011 | defactinib -0.032 | [7] 0.001 | encorafenib -0.007 | [8] -0.054 | alisertib 0.004 | [9] -0.006 | gefitinib -0.001

ARFGAP2 (UniProt Q8N6H7)
inactive: vemurafenib -0.055 | [1] 0.008 | barasertib 0.007 | [2] 0.031 | volasertib -0.003 | [3] 0.029 | [4] -0.015 | [5] 0.054 | saracatinib 0.002 | sotrastaurin -0.009 | alvocidib -0.012 | Tubastatin A -0.007 | [6] -0.002 | defactinib 0.024 | [7] -0.055 | encorafenib 0.053 | [8] -0.01 | alisertib 0.027 | [9] -0.015 | gefitinib 0.016

APRT (UniProt P07741)
inactive: vemurafenib 0.037 | [1] 0 | barasertib 0.077 | [2] -0.029 | volasertib -0.089 | [3] 0.006 | [4] -0.029 | [5] 0.005 | saracatinib -0.022 | sotrastaurin 0.021 | alvocidib 0.007 | Tubastatin A 0.035 | [6] -0.028 | defactinib -0.025 | [7] 0.046 | encorafenib -0.042 | [8] 0.018 | alisertib 0.005 | [9] 0.039 | gefitinib -0.016

ARHGEF12 (UniProt Q9NZN5)
inactive: vemurafenib 0.014 | [1] 0.026 | barasertib 0.051 | [2] 0.003 | volasertib 0.006 | [3] 0.041 | [4] -0.226 | [5] 0.055 | saracatinib 0.031 | sotrastaurin 0.029 | alvocidib -0.098 | Tubastatin A -0.015 | [6] 0.038 | defactinib -0.007 | [7] -0.012 | encorafenib 0.007 | [8] 0.05 | alisertib -0.013 | [9] 0.013 | gefitinib 0.043

ARRB2 isoform 3 (UniProt P32121)
inactive: vemurafenib 0.035 | [1] -0.02 | barasertib 0.036 | [2] 0.031 | volasertib 0.03 | [3] 0.004 | [4] -0.116 | [5] 0.039 | saracatinib 0.017 | sotrastaurin 0.022 | alvocidib -0.038 | Tubastatin A 0.028 | [6] -0.011 | defactinib -0.026 | [7] 0.066 | encorafenib -0.011 | [8] -0.013 | alisertib -0.01 | [9] 0.036 | gefitinib 0.028

ARID2 (UniProt Q68CP9)
inactive: vemurafenib 0.047 | [1] -0.023 | barasertib 0.011 | [2] -0.106 | volasertib -0.034 | [3] 0.134 | [4] -0.086 | [5] -0.007 | saracatinib 0.013 | sotrastaurin -0.043 | alvocidib -0.024 | Tubastatin A -0.091 | defactinib -0.007 | [7] 0.007 | encorafenib 0.013 | [8] 0.052 | alisertib -0.064 | [9] 0.021 | gefitinib 0.015

Fetched one by one from above, 2 records:
ARHGEF12 (UniProt Q9NZN5)
inactive: vemurafenib 0.014 | [1] 0.026 | barasertib 0.051 | [2] 0.003 | volasertib 0.006 | [3] 0.041 | [4] -0.226 | [5] 0.055 | saracatinib 0.031 | sotrastaurin 0.029 | alvocidib -0.098 | Tubastatin A -0.015 | [6] 0.038 | defactinib -0.007 | [7] -0.012 | encorafenib 0.007 | [8] 0.05 | alisertib -0.013 | [9] 0.013 | gefitinib 0.043

ARFGAP2 (UniProt Q8N6H7)
inactive: vemurafenib -0.055 | [1] 0.008 | barasertib 0.007 | [2] 0.031 | volasertib -0.003 | [3] 0.029 | [4] -0.015 | [5] 0.054 | saracatinib 0.002 | sotrastaurin -0.009 | alvocidib -0.012 | Tubastatin A -0.007 | [6] -0.002 | defactinib 0.024 | [7] -0.055 | encorafenib 0.053 | [8] -0.01 | alisertib 0.027 | [9] -0.015 | gefitinib 0.016

(continued)

ARHGAP17 (UniProt Q68EM7)
inactive: vemurafenib 0.059 | [1] 0.016 | barasertib -0.025 | [2] -0.05 | volasertib -0.038 | [3] 0.023 | [4] 0.077 | [5] -0.027 | saracatinib -0.008 | sotrastaurin 0.009 | alvocidib 0.003 | Tubastatin A -0.037 | [6] 0.014 | defactinib 0.027 | [7] 0.004 | encorafenib -0.044 | [8] 0.016 | alisertib 0 | [9] -0.013 | gefitinib -0.017

ARRB1 isoform 2 (UniProt P49407)
inactive: vemurafenib 0.008 | [1] -0.01 | barasertib 0.064 | [2] -0.037 | volasertib 0.037 | [3] -0.007 | saracatinib -0.152 | sotrastaurin -0.198 | Tubastatin A 0.017 | [6] -0.003 | defactinib -0.158 | [7] 0.03 | encorafenib -0.04 | [8] 0.144 | alisertib 0.007 | [9] 0.002 | gefitinib 0.017

ARHGEF2 (UniProt V9GYF0)
inactive: vemurafenib -0.013 | [1] 0.05 | [2] 0.022 | volasertib -0.022 | [3] 0.11 | saracatinib -0.114 | Tubastatin A -0.07 | defactinib -0.211 | [7] 0.082 | encorafenib -0.035 | [8] 0.014 | alisertib -0.083 | [9] 0.112 | gefitinib 0.229

ARPP19 (UniProt H3BMD8)
inactive: vemurafenib 0.001 | [1] -0.004 | barasertib -0.001 | [2] 0.145 | volasertib 0.001 | [3] -0.055 | [4] -0.199 | [5] 0.171 | saracatinib 0.016 | sotrastaurin 0.093 | alvocidib -0.058 | Tubastatin A 0.051 | [6] 0.037 | defactinib -0.014 | [7] 0.016 | encorafenib -0.056 | [8] -0.07 | alisertib -0.029 | [9] -0.004 | gefitinib -0.049

ARMCX5 (UniProt Q6P1M9)
inactive: vemurafenib 0 | [1] 0.032 | barasertib 0.007 | [2] -0.034 | volasertib -0.012 | [3] -0.027 | [4] -0.099 | [5] -0.03 | saracatinib 0.043 | alvocidib 0.029 | Tubastatin A -0.105 | [6] 0.067 | defactinib 0.014 | [7] -0.012 | encorafenib 0.045 | [8] 0.023 | alisertib -0.003 | [9] 0.035 | gefitinib 0.035

ARF6 (UniProt P62330)
inactive: vemurafenib -0.033 | [1] -0.025 | barasertib -0.124 | [2] -0.007 | volasertib -0.028 | [3] -0.006 | [4] -0.085 | [5] 0.061 | saracatinib -0.044 | sotrastaurin 0.018 | alvocidib -0.043 | Tubastatin A 0.055 | [6] -0.015 | defactinib -0.009 | [7] -0.022 | encorafenib 0.018 | [8] 0.035 | alisertib 0.006 | [9] 0.038 | gefitinib 0.055

APLF (UniProt Q8IW19)
inactive: vemurafenib 0.029 | [1] 0.052 | barasertib -0.012 | [2] 0.054 | volasertib 0.034 | sotrastaurin -0.002 | [6] 0.048 | defactinib 0.106 | encorafenib 0.024 | [8] -0.114 | [9] 0.009

ARHGAP27 (UniProt Q6ZUM4)
inactive: vemurafenib -0.078 | barasertib 0.198 | defactinib -0.016

ARL13B (UniProt Q3SXY8)
inactive: vemurafenib -0.075 | [1] -0.039 | barasertib -0.041 | volasertib 0.065 | [3] -0.043 | [4] 0.325 | [5] -0.246 | saracatinib 0.007 | sotrastaurin 0.117 | alvocidib 0.182 | Tubastatin A 0.018 | [6] 0.165 | defactinib -0.025 | [7] -0.102 | [9] 0

ARV1 (UniProt Q9H2C2)
inactive: vemurafenib -0.108 | [1] 0.036 | barasertib 0 | [2] 0.097 | volasertib 0.002 | [3] 0.096 | [4] -0.158 | [5] 0.023 | saracatinib -0.042 | sotrastaurin 0.225 | alvocidib 0.2 | Tubastatin A -0.001 | defactinib 0.088 | [7] -0.153 | encorafenib -0.03 | [8] -0.295 | alisertib -0.12 | [9] 0.087 | gefitinib 0.115

ARHGAP24 (UniProt Q8N264)
inactive: vemurafenib -0.368 | [2] 0.08 | [4] 0.209 | [5] -0.162 | alvocidib 0.031 | [6] 0.135 | defactinib -0.325 | encorafenib 0.174 | [8] -0.128 | alisertib 0.039 | gefitinib 0.126

APOBEC3B (UniProt Q9UH17)
inactive: vemurafenib -0.294 | [2] 0.026 | [3] -0.239 | [4] -0.46 | [5] -0.069 | saracatinib 0.055 | sotrastaurin -0.245 | alvocidib 0.022 | Tubastatin A 0.098 | [6] -0.131 | defactinib 0.092 | [7] 0.028 | encorafenib -0.004 | [8] -0.193 | alisertib 0.052 | gefitinib -0.088
